Measurements reported in PubChem BioAssay AID504467 (National Center for Advancing Translational Sciences (NCATS), 2011).
The campaign covered roughly 330,000 compounds. About 7,700 (2.3%) were called active. This list was built around the results that the source calls inconclusive (neither active nor inactive); the mix of calls is not that of the screen. The call rests on the fitted dose curve; in most records, active means well fitted inhibition curve with a large enough effect; inconclusive means small, poorly fitted or top-dose-only effect, or effect the other way; inactive means flat fitted curve, though single readings scatter. Potencies of inconclusive entries are doubtful fits and often do not repeat.
On the % scale 0 is the no-effect control and ±100 the full control effect; potency means the concentration at half of the fitted maximal effect.

Assay: qHTS screen for small molecules that inhibit ELG1-dependent DNA repair in human embryonic kidney (HEK293T) cells expressing luciferase-tagged ELG1; further: nearly all actives have a fitted effect of over 55% in size
Settings: HEK293T ELG1-luciferase reporter, luminescence, 16 h, DNA damage induced by 5-fluorouridine; activity change, negative = inhibition: at 46.1 µM (top of the series)
Outline: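 In this reporter screen, reduction of luminescence relative to DMSO vehicle indicated activity. Compounds and 5-fluorouridine were added together to 2,000 cells per well, incubated for 16 hr at 37 °C, then developed with ONE-Glo.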
For `O=C(NC(=S)Nc1ccccc1N1CCOCC1)c1ccc([N+](=O)[O-])cc1`, the Potency was inconclusive: 20.6 µM [inhibitor, partial curve].
In the case of `O=C(CNC1CCCCCC1)Nc1ccccc1N1CCCCC1`, the “activity change, negative = inhibition” value was inactive: -12.7%.
With `Cc1cc(N2CCN(C)CC2)nc2ccc(NC(=S)NCCC(C)C)cc12` the “activity change, negative = inhibition” value was inactive: 11.7%.
For `CC1CCN(C(=O)CSc2nnc(-c3ccccc3F)o2)CC1`, the Potency was inconclusive: 14.6 µM [activator, partial curve, poor fit].
In the case of `COc1ccc2c(c1)c1ncn(Cc3ccco3)c(=O)c1n2C`, the Potency was active: 16.4 µM.
For `Cc1cccc(OCCn2cc(/C=N/NC(=O)c3ccncc3)c3ccccc32)c1`, the Potency was active: 20.6 µM.
In the case of `CCN(CC)S(=O)(=O)c1cccc(C(=O)c2c(C)cc3ccccn23)c1`, the Potency was inconclusive: 29.1 µM [inhibitor, single point].
With `O=C(c1ccco1)N1CCN(C(=S)Nc2ccccc2Cl)CC1` the Potency was inconclusive: 25.9 µM [inhibitor, partial curve].
In the case of `CCCCn1nc(C(=O)N(C)CC(=O)Nc2cccc(F)c2)c2ccccc2c1=O`, the Potency was inconclusive: 29.1 µM [inhibitor, single point].
With `C=CCC(CC=C)(NC(=O)c1cccc(C)c1)c1ccccc1` the “activity change, negative = inhibition” value was inactive: 15.1%.
In the case of `C#CCOCCOCCOCCNc1nc(N2CCN(C(=O)[C@H](CC(N)=O)n3cc([C@@H](N)CC(N)=O)nn3)CC2)nc(N2CCN(C(=O)[C@H](CC(N)=O)n3cc([C@@H](N)CC(N)=O)nn3)CC2)n1`, the Potency was inconclusive: 14.6 µM [activator, partial curve].
With `CC(=O)N1c2ccc(S(=O)(=O)NCCC(=O)Nc3ccc(OC(F)(F)F)cc3)cc2CC1C` (centres undefined) the Potency was inconclusive: 20.6 µM [inhibitor, single point].
In the case of `CCCCNC(=S)N(C)/N=C/c1ccc(OCc2ccc(C(=O)OC)cc2)c(OC)c1`, the Potency was inconclusive: 29.1 µM [inhibitor, single point].
For `O=[N+]([O-])c1ccc(Nc2ccc3ccccc3c2)nc1`, the Potency was inconclusive: 2.31 µM [activator, full curve].
With `CCC1CCCCN1C(=O)CCc1nnc(C2CCCCC2)o1` (centres undefined) the Potency was inconclusive: 18.3 µM [activator, partial curve].
For `Cc1ccccc1NC(=O)/C=C/c1ccc([N+](=O)[O-])s1`, the Potency was inconclusive: 29.1 µM [inhibitor, single point].
With `CCCC1CCC(C(=O)Nn2c(C)nc3ccccc3c2=O)CC1` (centres undefined) the Potency was inconclusive: 14.6 µM [inhibitor, partial curve].
With `CCOC(=O)Cc1csc(NS(=O)(=O)c2ccc3c4c(cccc24)C(=O)N3CC)n1` the Potency was inconclusive: 35.5 µM [activator, single point].
For `NC(=O)CCn1c2ccccc2c2ccccc21`, the “activity change, negative = inhibition” value was inactive: -13.7%.
With `Cc1csc(SCC(=O)Nc2sccc2C#N)n1` the Potency was inconclusive: 2.59 µM [activator, full curve].
For `Cc1ccc(NC(=O)c2ccn(C(=O)Nc3ccccc3)n2)c(C)c1`, the Potency was inconclusive: 29.1 µM [activator, single point].
In the case of `Cc1nnc(NC(=O)c2ccc(N3CCCC3=O)cc2)s1`, the Potency was inconclusive: 8.2 µM [activator, partial curve].
In the case of `C=CC[C@@H](CC(=O)N(CCO)Cc1ccccc1)C(=O)N[C@H](COC(=O)[C@@H](CC=C)CC(=O)OC(C)(C)C)Cc1ccccc1`, the Potency was inconclusive: 32.6 µM [inhibitor, single point].
In the case of `CCOc1ccc2nc(N3CCCC(C(=O)NCCCN4CCOCC4)C3)sc2c1` (centres undefined), the Potency was inconclusive: 20.6 µM [activator, single point].
With `N#Cc1nc(Cc2ccccc2)oc1N1CCN(c2ccccc2)CC1` the “activity change, negative = inhibition” value was inactive: -6.66%.
For `CCOc1ccc(-n2c(C)c(C(C)=O)c3cc(O)ccc32)cc1`, the Potency was inconclusive: 6.51 µM [inhibitor, single point].
With `CC(C)CC(=O)NC(NC(=O)CC(C)C)c1cccc([N+](=O)[O-])c1` the “activity change, negative = inhibition” value was inactive: 1.25%.
For `COC(=O)c1ccc(Cn2nnc3ccccc32)cc1`, the “activity change, negative = inhibition” value was inactive: -1.55%.
With `O=C(NCCCN1CCCC1=O)Nc1ccc(Cl)cc1Cl` the Potency was inconclusive: 23.1 µM [activator, partial curve, poor fit].
In the case of `CN1CCN(CC(=O)Nc2nc(-c3c[nH]c4ccccc34)cs2)CC1`, the Potency was inconclusive: 18.3 µM [activator, single point].
With `C=CCn1c(Cc2cccs2)nnc1SC/C=C/c1ccccc1` the Potency was inconclusive: 32.6 µM [inhibitor, partial curve, poor fit].
For `Fc1ccc2nc(N3CCCC3)sc2c1`, the Potency was inconclusive: 11.6 µM [activator, partial curve].
With `CCOC(=O)C1CCN(C(=O)Nc2ccc3nc(C)c(C)nc3c2)CC1` the Potency was inconclusive: 18.4 µM [inhibitor, single point].
For `CC(C)C(=O)NCCc1nc2ccccc2n1CCc1ccccc1`, the “activity change, negative = inhibition” value was inactive: -5.68%.
With `O=C(CSc1nncs1)Nc1ccc(Cl)cn1` the Potency was inconclusive: 20.6 µM [activator, single point].
With `O=C(COC(=O)COc1cccc(F)c1)NCC1CCCCC1` the Potency was inconclusive: 29.1 µM [activator, single point].
In the case of `NC(=O)c1ccccc1NC(=O)c1ccccc1F`, the Potency was inconclusive: 20.6 µM [activator, single point].
For `CN1CCN(S(=O)(=O)c2cccc(C(=O)NC3(C)CCS(=O)(=O)C3)c2)CC1` (centres undefined), the Potency was inconclusive: 32.6 µM [activator, partial curve, poor fit].
For `CC(=O)Oc1ccc(C(=O)Nc2ccccc2C(=O)NCC(C)C)cc1`, the Potency was inconclusive: 25.9 µM [inhibitor, single point].
With `CCCn1nc2cc(C(=O)NCc3ccc(OC)cc3)ccc2c1OCC` the Potency was inconclusive: 18.4 µM [inhibitor, single point].
In the case of `N#CC(C#N)=Cc1cccn1-c1ccc(C(=O)O)cc1`, the “activity change, negative = inhibition” value was inactive: 5.69%.
With `O=C(CNC(=O)c1cccs1)Nc1ccc2c(c1)OCCO2` the Potency was inconclusive: 5.17 µM [activator, partial curve].
With `CC(Sc1nc2cc(Cl)ccc2s1)C(=O)Nc1cccc(S(=O)(=O)N2CCOCC2)c1` (centres undefined) the Potency was inconclusive: 18.4 µM [inhibitor, single point].
For `COc1nnc(-c2ccc(C)c(S(=O)(=O)N(C)C)c2)c2ccccc12`, the Potency was inconclusive: 29.1 µM [inhibitor, single point].
In the case of `CCOc1ccc2[nH]c(=O)c(CN(Cc3ccccc3OC)C(=O)c3ccccc3)cc2c1`, the Potency was inconclusive: 25.9 µM [inhibitor, single point].
For `Cc1ccc(NC(=S)Nn2cnnc2)c(C)c1`, the “activity change, negative = inhibition” value was inactive: 3.97%.
In the case of `Brc1ccc(-c2noc(-c3ccccn3)n2)o1`, the Potency was inconclusive: 2.06 µM [activator, full curve].
In the case of `O=C(NCc1ccccc1)NC(=O)c1ccccc1F`, the “activity change, negative = inhibition” value was inactive: 18.2%.
With `COc1ccc(N2CCN(c3ncnc4scc(-c5ccccc5)c34)CC2)cc1` the Potency was active: 16.4 µM.
With `Cc1cccc(NC(=O)CCCSc2nc3ccccc3[nH]2)c1` the Potency was inconclusive: 18.4 µM [inhibitor, single point].
In the case of `O=[N+]([O-])c1ccc(/C=C/c2ccc3cccc(O)c3n2)cc1`, the Potency was inconclusive: 2.91 µM [activator, full curve].
In the case of `Nc1c(C(=O)Nc2cccc(F)c2)nnn1-c1ccc2c(c1)OCCO2`, the Potency was inconclusive: 0.82 µM [activator, full curve].
For `O=C(C1CCN(S(=O)(=O)c2ccccc2)CC1)N1CCc2ccccc21`, the “activity change, negative = inhibition” value was inactive: -3.02%.
In the case of `Nc1cccn2c(-c3ccc(Cl)c(Cl)c3)cnc12`, the Potency was inconclusive: 8.2 µM [activator, partial curve].
In the case of `COC(=O)c1ccc(/C=N/Nc2nc3ccccc3[nH]2)cc1`, the Potency was inconclusive: 11.6 µM [activator, partial curve].
For `Cc1cc(C2=CC(=O)C[C@H](c3ccc4c(c3)OCO4)C2)ccc1F`, the Potency was inconclusive: 32.6 µM [inhibitor, single point].
In the case of `COc1ccc(O)c(C(=O)c2cnc3nc4ccccc4n3c2)c1`, the Potency was inconclusive: 5.17 µM [inhibitor, full curve, poor fit].
With `CCOc1ccc(OCc2ccc(C(=O)N(CC)CC)cc2)cc1` the Potency was inconclusive: 4.61 µM [activator, single point].
In the case of `CCC(=O)Nc1cccc(NC(=S)NC(=O)c2ccc(Cl)cc2Cl)c1`, the Potency was inconclusive: 8.2 µM [activator, partial curve, poor fit].
With `O=c1oc2ccccc2c2c1SC(C(F)(F)F)C2` (centres undefined) the “activity change, negative = inhibition” value was inactive: -3.13%.
For `c1ccc(C(c2ccccc2)N2CCN(c3nc4ccccc4n4cnnc34)CC2)cc1`, the Potency was inconclusive: 29.1 µM [inhibitor, single point].
In the case of `Brc1cccc(CNCC2CCCO2)c1` (centres undefined), the “activity change, negative = inhibition” value was inactive: -4.49%.
With `FC(F)(F)c1cc(-c2ccc(Cl)cc2)nc2ncnn12` the “activity change, negative = inhibition” value was inactive: 1.07%.
In the case of `Cc1ccc(C(=O)Nc2ccccn2)cc1S(=O)(=O)N1CCOCC1`, the “activity change, negative = inhibition” value was inactive: 15.1%.
For `Cn1ncc(Br)c1NC(=O)CSc1ccc(Cl)cc1`, the Potency was active: 7.3 µM.
In the case of `CCN(Cc1nc2cc(OC)c(OC)cc2c(=O)[nH]1)C(=O)c1ccc(S(=O)(=O)N(C)C)cc1`, the Potency was inconclusive: 8.2 µM [inhibitor, partial curve].
With `CC(=O)NCCNC(=O)c1ccc(-n2c(C)ccc2C)cc1` the Potency was inconclusive: 23.1 µM [activator, partial curve].
For `CC(C)N=c1scc(-c2cccs2)n1/N=C/c1ccc(O)c(O)c1O`, the Potency was inconclusive: 5.8 µM [activator, partial curve, poor fit].
With `O=C(c1ccccc1[N+](=O)[O-])N1CCc2ccccc2C1` the Potency was inconclusive: 4.61 µM [activator, partial curve].
